Measurements reported in paper doi:10.1101/2021.05.24.445519 (bioRxiv, 2021).
Results are given in words; binding and its absence hold for the method and conditions named. Binding seen in cells or lysates may run through a third protein. A yes stands for co-enrichment or nearness to the bait. Other partners may have been found.

Sequences of proteins named here, by UniProt entry; tags and fusion partners are left off. Residues count along the entry.
UniProt P21549, residues 6-391: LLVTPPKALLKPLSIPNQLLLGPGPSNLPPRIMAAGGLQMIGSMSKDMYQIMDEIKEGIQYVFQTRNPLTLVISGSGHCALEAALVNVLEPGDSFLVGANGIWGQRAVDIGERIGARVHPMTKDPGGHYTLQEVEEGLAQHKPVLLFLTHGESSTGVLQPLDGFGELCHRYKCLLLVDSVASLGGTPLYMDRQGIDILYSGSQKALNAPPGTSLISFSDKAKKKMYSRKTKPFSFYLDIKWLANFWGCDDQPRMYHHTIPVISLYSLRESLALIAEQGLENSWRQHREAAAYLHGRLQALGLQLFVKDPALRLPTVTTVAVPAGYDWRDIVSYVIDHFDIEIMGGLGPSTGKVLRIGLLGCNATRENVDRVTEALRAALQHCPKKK

Molecular target: alanine:glyoxylate aminotransferase 1, major allele (AGT-Ma), expressed in HEK293 cells (human) (UniProt P21549)
Experiment: affinity purification with mass spectrometry

B1: FBXO21, a E3 ubiquitin ligase (protein, UniProt O94952 1-628)
chain: MAAAAVDSAMEVVPALAEEAAPEVAGLSCLVNLPGEVLEYILCCGSLTAADIGRVSSTCRRLRELCQSSGKVWKEQFRVRWPSLMKHYSPTDYVNWLEEYKVRQKAGLEARKIVASFSKRFFSEHVPCNGFSDIENLEGPEIFFEDELVCILNMEGRKALTWKYYAKKILYYLRQQKILNNLKAFLQQPDDYESYLEGAVYIDQYCNPLSDISLKDIQAQIDSIVELVCKTLRGINSRHPSLAFKAGESSMIMEIELQSQVLDAMNYVLYDQLKFKGNRMDYYNALNLYMHQVLIRRTGIPISMSLLYLTIARQLGVPLEPVNFPSHFLLRWCQGAEGATLDIFDYIYIDAFGKGKQLTVKECEYLIGQHVTAALYGVVNVKKVLQRMVGNLLSLGKREGIDQSYQLLRDSLDLYLAMYPDQVQLLLLQARLYFHLGIWPEKSFCLVLKVLDILQHIQTLDPGQHGAVGYLVQHTLEHIERKKEEVGVEVKLRSDEKHRDVCYSIGLIMKHKRYGYNCVIYGWDPTCMMGHEWIRNMNVHSLPHGHHQPFYNVLVEDGSCRYAAQENLEYNVEPQEISHPDVGRYFSEFTGTHYIPNAELEIRYPEDLEFVYETVQNIYSAKKENIDE
With B1 the binding was “binds”.
